Source: patent US11524937B2, “Indirubin derivatives, and uses thereof” (CITY OF HOPE, priority 2012, dated 2022)
Some of these results come from one statement about several compounds together. At least one compound was matched to its structure with a doubt left.

Chains of the proteins cited; added tags and fusions are not shown. Lines headed by an entry give the natural chain unless they say otherwise; changes in a name come on top.
UniProt P00519, whole entry: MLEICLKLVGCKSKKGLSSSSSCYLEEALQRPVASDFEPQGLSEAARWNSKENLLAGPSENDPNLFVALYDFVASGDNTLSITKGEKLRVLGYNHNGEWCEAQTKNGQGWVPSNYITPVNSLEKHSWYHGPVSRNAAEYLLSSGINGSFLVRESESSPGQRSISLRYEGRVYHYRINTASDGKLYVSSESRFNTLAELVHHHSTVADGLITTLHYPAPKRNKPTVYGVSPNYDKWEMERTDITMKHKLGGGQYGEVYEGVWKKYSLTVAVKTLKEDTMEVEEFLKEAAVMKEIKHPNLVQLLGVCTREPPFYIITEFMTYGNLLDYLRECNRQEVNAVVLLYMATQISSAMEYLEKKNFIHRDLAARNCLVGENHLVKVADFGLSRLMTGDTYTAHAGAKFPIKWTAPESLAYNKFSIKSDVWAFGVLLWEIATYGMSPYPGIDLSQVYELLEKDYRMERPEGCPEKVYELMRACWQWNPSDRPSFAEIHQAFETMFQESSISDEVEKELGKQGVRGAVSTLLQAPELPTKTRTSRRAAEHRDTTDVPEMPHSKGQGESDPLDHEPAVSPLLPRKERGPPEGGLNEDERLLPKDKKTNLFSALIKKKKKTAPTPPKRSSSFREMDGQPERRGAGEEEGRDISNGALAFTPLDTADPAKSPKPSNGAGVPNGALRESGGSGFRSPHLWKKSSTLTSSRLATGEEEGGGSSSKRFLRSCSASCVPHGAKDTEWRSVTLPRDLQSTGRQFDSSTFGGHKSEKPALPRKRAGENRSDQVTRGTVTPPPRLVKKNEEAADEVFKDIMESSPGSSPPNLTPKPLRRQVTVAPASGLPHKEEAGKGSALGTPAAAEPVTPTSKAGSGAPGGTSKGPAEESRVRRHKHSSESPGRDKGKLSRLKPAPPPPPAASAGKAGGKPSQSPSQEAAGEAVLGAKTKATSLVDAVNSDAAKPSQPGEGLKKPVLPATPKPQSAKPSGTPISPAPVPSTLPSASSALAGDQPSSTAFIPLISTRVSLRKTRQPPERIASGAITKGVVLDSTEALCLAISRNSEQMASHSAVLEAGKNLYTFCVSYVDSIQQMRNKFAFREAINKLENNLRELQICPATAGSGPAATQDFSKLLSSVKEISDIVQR
UniProt P12931, whole entry: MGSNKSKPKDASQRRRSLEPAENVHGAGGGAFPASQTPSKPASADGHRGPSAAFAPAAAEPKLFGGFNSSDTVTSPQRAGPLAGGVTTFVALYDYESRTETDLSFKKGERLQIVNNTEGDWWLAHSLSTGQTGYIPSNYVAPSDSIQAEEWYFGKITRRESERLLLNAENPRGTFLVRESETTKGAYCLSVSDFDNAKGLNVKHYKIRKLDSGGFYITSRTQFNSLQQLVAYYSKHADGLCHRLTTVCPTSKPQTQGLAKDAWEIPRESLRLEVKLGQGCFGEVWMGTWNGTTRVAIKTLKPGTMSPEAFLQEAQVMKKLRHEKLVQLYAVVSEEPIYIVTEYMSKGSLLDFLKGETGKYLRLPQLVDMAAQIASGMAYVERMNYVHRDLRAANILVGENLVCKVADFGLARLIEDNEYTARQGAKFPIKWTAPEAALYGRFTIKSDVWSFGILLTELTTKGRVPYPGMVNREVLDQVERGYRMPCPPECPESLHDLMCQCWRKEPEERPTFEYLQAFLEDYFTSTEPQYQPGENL
UniProt O60674: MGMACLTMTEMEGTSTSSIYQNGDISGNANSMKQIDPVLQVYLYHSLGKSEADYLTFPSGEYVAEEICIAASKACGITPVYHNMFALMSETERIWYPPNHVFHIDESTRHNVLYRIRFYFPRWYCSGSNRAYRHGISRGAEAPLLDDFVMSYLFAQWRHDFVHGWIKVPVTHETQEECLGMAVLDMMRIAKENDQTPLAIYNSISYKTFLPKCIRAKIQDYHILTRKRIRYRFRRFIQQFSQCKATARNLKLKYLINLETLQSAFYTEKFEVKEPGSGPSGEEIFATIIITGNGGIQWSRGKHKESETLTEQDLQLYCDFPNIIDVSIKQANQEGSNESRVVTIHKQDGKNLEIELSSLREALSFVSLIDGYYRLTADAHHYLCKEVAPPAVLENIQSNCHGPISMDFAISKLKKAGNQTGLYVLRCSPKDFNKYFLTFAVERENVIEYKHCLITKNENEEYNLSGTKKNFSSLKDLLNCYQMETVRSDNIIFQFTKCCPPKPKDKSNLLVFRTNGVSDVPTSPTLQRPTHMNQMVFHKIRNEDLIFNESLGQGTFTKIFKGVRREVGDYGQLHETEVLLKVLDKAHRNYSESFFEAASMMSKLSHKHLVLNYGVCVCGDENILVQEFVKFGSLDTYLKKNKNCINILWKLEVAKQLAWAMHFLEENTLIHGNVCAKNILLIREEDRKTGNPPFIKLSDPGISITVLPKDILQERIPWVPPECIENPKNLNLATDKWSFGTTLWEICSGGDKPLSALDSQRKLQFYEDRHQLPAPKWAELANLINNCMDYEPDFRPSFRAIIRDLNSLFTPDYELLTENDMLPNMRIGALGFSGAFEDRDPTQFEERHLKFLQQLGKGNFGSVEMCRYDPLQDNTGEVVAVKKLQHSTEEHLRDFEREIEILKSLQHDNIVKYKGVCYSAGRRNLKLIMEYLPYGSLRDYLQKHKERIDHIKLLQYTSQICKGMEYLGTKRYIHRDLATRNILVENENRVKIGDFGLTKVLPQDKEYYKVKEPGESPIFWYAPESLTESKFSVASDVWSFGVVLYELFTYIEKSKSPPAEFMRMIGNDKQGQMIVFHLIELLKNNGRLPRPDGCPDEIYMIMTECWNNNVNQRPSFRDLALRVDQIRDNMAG

Assays:
Format in all cases: biochemical
ABL1 = ABL1 (Homo sapiens, UniProt P00519); assay: in vitro kinase assay, recombinant ABL1
Method: The in vitro kinase assays of an IRD (IRD Nos. 10, 11, 13, 61, 70, 71, 79, 80, 83˜87 and 176) were carried out using recombinant proteins according to the procedure disclosed in Nam 2012 (Nam, S., Xie, J., Perkins, A., Ma, Y., Yang, F., Wu, J., Wang, Y., Xu, R. Z., Huang, W., Horne, D. A., and Jove, R. (2012) Novel synthetic derivatives of the natural product berbamine inhibit Jak2/Stat3 signaling and induce apoptosis of human melanoma cells, Molecular oncology), which is hereby incorporated by reference in its entirety, as if fully set forth herein.

Aurora A = target: T1, Aurora A (Homo sapiens, UniProt O14965); assay: in vitro kinase assay, recombinant Aurora A
T1 sequence (O14965 1-403): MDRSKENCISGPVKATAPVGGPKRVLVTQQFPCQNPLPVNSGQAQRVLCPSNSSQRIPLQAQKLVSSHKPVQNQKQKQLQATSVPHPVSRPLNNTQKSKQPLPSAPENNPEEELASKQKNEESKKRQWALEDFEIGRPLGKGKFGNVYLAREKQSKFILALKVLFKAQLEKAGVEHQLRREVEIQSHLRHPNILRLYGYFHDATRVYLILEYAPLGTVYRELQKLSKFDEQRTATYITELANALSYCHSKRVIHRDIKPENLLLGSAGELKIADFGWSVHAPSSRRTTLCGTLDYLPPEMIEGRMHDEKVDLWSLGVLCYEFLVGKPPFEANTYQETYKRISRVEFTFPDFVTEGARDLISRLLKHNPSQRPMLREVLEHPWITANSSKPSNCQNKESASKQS

c-Src = c-Src (Homo sapiens, UniProt P12931); assay: in vitro kinase assay, recombinant c-Src
JAK2 = JAK2 (Homo sapiens, UniProt O60674); assay: in vitro kinase assay, recombinant JAK2

SMILES | IC50 (ABL1) [nM] | IC50 (Aurora A) [nM] | IC50 (c-Src) [nM] | IC50 (JAK2) [nM]
COCCN1CCN(CCON=C2C(=C3C(=O)Nc4cc(Br)ccc43)Nc3ccccc32)CC1 [compound 70] | < 10000 | < 900 | – | –
CN(C)CCON=C1C(=C2C(=O)Nc3cc(Br)ccc32)Nc2ccc([N+](=O)[O-])cc21 [compound 11] | < 10000 | – | < 4000 | –
O=C1Nc2cc(Br)ccc2C1=C1Nc2ccccc2C1=NOCCN1CCN(CCOCCO)CC1 [compound 85] | – | < 15 | – | –
Cl.Cl.O=C1Nc2cc(Br)ccc2C1=C1Nc2ccccc2C1=NOCCN1CCNCC1 [compound 87] | – | < 15 | – | < 600
O=C1Nc2cc(Br)ccc2C1=C1Nc2ccccc2C1=NOCCN1CCNCC1 [compound 61] | – | < 900 | – | < 1200
CCN(CC)CCON=C1C(=C2C(=O)Nc3cc(Br)ccc32)Nc2ccc([N+](=O)[O-])cc21 [compound 13] | < 10000 | – | < 4000 | –
O=C1Nc2cc(Br)ccc2C1=C1Nc2ccc([N+](=O)[O-])cc2C1=NOCCN1CCCC1 [compound 10] | – | – | < 4000 | –
CN(CCON=C1C(=C2C(=O)Nc3cc(Br)ccc32)Nc2ccccc21)CC(O)CO (centres unmarked) [compound 79] | – | – | – | < 600
CN(CCON=C1C(=C2C(=O)Nc3cc(Br)ccc32)Nc2ccccc21)CC(O)CO (centres unmarked) [compound 80] | – | – | – | < 600
